Data on 36 compounds can be found in PubChem BioAssay (NCATS).

SMILES strings stand for the structures. The list shows a part of the results. Shown are side measurements of this screen, not its main read-out; they come without a call. Most of these compounds were active or inconclusive in the main read-out, so they are no random draw. Words in brackets tell the shape of the fitted curve; partial curves, single points and poor fits give uncertain potencies.

A short description of the assay: qHTS Assay for Inhibitors of PDE-IV (AID 607). The conditions noted are these: HEK293 ACTOne CNG channel cells, membrane potential fluorescence; measured here: parental cell counter-screen. The method, boiled down:
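Cell-based read-out of cAMP via a modified cyclic nucleotide-gated channel and membrane potential dye (535/590 nm) in HEK293 cells expressing PDE4 endogenously. Compounds tested up to 22.9 uM final; 100 uM RO 20-1724 reference.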
As for `O=C(c1csnn1)N1CCC2(CCCN(c3cccc(-c4ccccc4)c3)C2)CC1`, the AC50 is 15.8 µM [rising, single point].

As to `CCC[C@@H]1C[C@@]1(CCC)C(NC(=O)c1ccco1)c1ccc(Cl)cc1` (stereo partly specified), the AC50 was 12.6 µM [rising, single point].

As for `C[C@@H](C(=O)Nc1ccc2ccccc2c1)[C@@H]1C[C@@]1(C)[C@@H](NC(=O)c1cnccn1)c1ccccc1`, the half-maximal activity concentration (AC50) is 5.01 µM [rising, partial curve].

For `COC(=O)[C@@]1(Cc2ccc(OC)cc2)[C@H]2c3cc(C(=O)N(C)C)n(Cc4ccc(C)o4)c3C[C@H]2CN1C(=O)c1ccccc1`, the AC50 was 10 µM [rising, partial curve].

With `COC(=O)[C@@]1(Cc2ccc(OC)cc2)[C@H]2c3cc(C(=O)N4CCCC4)n(CCn4cc([N+](=O)[O-])nc4C)c3C[C@H]2CN1C(=O)c1ccccc1`, the AC50 is 0.0126 µM [falling, full curve, poor fit].

For the compound `CCCC[C@H]1C[C@@H]1[C@@H]1N(C(C)=O)[C@H](c2cccc(OC)c2)CC12CC2`, the concentration at half-maximal activity (AC50) was 10 µM [rising, single point].

With `CN(C)Cc1ccccc1-c1cc(NCc2ccccc2)ncn1`, the AC50 was 20 µM [rising, single point].

Turning to `COC(=O)[C@@]1(Cc2ccc(OC)cc2)[C@H]2c3cc(C(=O)N4CCCC4)n(Cc4ccc(OC(F)(F)F)cc4)c3C[C@H]2CN1C(=O)c1ccccc1`, the AC50 was 2.51 µM [rising, single point].

For `CCCC[C@H]1C[C@@H]1[C@@H]1N(P(=O)(c2ccccc2)c2ccccc2)C[C@@](O)(c2ccccc2)CC12CC2`, the AC50 is 3.98 µM [rising, single point].

As for `COc1ccc2c(c1)[C@]1(C)CCC[C@](C)(CO)[C@@H]1CC2`, the AC50 was 31.6 µM [rising, single point].

As for `CN(C)Cc1ccccc1-c1nc(N(C)C)c2ccccc2n1`, the AC50 is 10 µM [rising, partial curve].

With `O=C(O)Cc1ccc(-c2ccccc2)cc1`, the AC50 was 0.316 µM [rising, full curve].

For the compound `COC(=O)[C@@]1(Cc2ccccc2)[C@H]2c3cc(C(=O)N4CCCC4)n(Cc4cccc5ccccc45)c3C[C@H]2CN1C(=O)c1ccccc1`, the AC50 is 1.58 µM [rising, partial curve].

Regarding `COC(=O)[C@H](C)[C@@H]1C[C@@]1(C)[C@@H](NC(=O)OCc1ccccc1)c1ccccc1`, the AC50 is 15.8 µM [rising, single point].

Consider `CC[C@@]12CCCN3CCc4c(n(c5ccccc45)C(=O)C1)[C@H]32`, for which the AC50 is 15.8 µM [rising, partial curve].

In the case of `CCC/C=C(\CCC)C(NC(=O)c1ccc(C(=O)OC)cc1)c1ccc(C(=O)OC)cc1` (stereo unspecified), the AC50 was 12.6 µM [rising, single point].

With `CCCC/C=C/C(NC(=O)c1cccs1)c1ccccc1` (stereo unspecified), the AC50 is 10 µM [rising, single point].

Take `COC(=O)[C@@]1(Cc2ccc(F)cc2)[C@H]2c3cc(C(=O)N(C)C)n(Cc4ccc(C)o4)c3C[C@H]2CN1C(=O)c1ccccc1`: the AC50 was 10 µM [rising, single point].

For `COc1ccc(-c2nc3cnc(OC)nc3n(C[C@H]3CCCO3)c2=O)cc1`, the AC50 was 15.8 µM [rising, single point].

In the case of `O=C(c1ccncc1)N1CCC[C@@]2(CCN(C(c3ccccc3)c3ccccc3)C2)C1`, the half-maximal activity concentration (AC50) was 12.6 µM [rising, partial curve].

Take `CCC/C=C(\CCC)C(NP(=O)(c1ccccc1)c1ccccc1)c1ccc(C(F)(F)F)cc1` (stereo unspecified): the AC50 is 3.98 µM [rising, full curve, poor fit].

For `Cn1cccc1C(=O)N1CCC2(CCN(Cc3nccs3)CC2)CC1`, the AC50 is 3.98 µM [rising, single point].

Regarding `CCC/C=C(\CCC)C(NC(=O)c1ccccc1)c1ccc(C(=O)OC)cc1` (stereo unspecified), the half-maximal activity concentration (AC50) was 6.31 µM [rising, partial curve].

Turning to `CCN(CC)CCOC(=O)[C@@H](c1ccccc1)C1CCCCC1`, the AC50 was 7.94 µM [rising, single point].

Consider `C[C@H](NCCC(c1ccccc1)c1ccccc1)c1ccccc1`, for which the AC50 is 7.94 µM [rising, single point].

Turning to `c1ccc(-c2cccc(N3CCC4(CCNCC4)CC3)c2)cc1`, the half-maximal activity concentration (AC50) is 15.8 µM [rising, single point].

For the compound `CC1=C(C(=O)OCc2ccccc2)C(c2ccc3ccccc3c2)NC(=O)N1CCCCCC(=O)O` (stereo unspecified), the AC50 was 15.8 µM [rising, single point].

For `O=C(c1ccncc1)N1CCC2(CC1)CCN(c1ccncc1)CC2`, the AC50 was 0.00316 µM [falling, full curve, poor fit].

As for `COC(=O)[C@@]1(Cc2ccccc2)[C@H]2c3cc(C(=O)N(C)C)n(Cc4ccc(OC)c(OC)c4)c3C[C@H]2CN1C(=O)c1ccccc1`, the AC50 is 12.6 µM [rising, single point].

With `CC[C@H](Cc1c(I)cc(I)c(N)c1I)C(=O)O`, the AC50 was 6.31 µM [rising, partial curve, poor fit].

As to `CCCCCCC/C=C\CCCCCCCCC(=O)O`, the AC50 was 0.00126 µM [falling, full curve, poor fit].

As for `CC(C)[C@@H](CC(=O)N[C@@H]1CCCC[C@H]1C(=O)N[C@H](CC(=O)N[C@@H](CCC(=O)O)CC(=O)O)Cc1c[nH]c2ccccc12)NC(=O)C[C@H](Cc1ccccc1)NC(=O)[C@@H]1CCCC[C@H]1N`, the AC50 is 3.98 µM [rising, partial curve, poor fit].

On to `CCC/C=C(\CCC)C(NC(=O)C(C)(C)C)c1ccc(C(=O)OC)cc1` (stereo unspecified), for which the half-maximal activity concentration (AC50) was 10 µM [rising, partial curve].

In the case of `COC(=O)[C@@]1(Cc2ccc(F)cc2)[C@H]2c3cc(C(=O)N(C)C)n(Cc4ccc(OC(F)(F)F)cc4)c3C[C@H]2CN1C(=O)c1ccccc1`, the AC50 was 2.51 µM [rising, single point].

`Cc1ccccc1-c1cncnc1NCc1cccs1`: the AC50 was 10 µM [rising, partial curve].

Regarding `CCCCC[C@H](O)/C=C\[C@@H]1[C@H](O)CC(=O)[C@@H]1CCCCCCC(=O)O`, the half-maximal activity concentration (AC50) was 0.794 µM [rising, partial curve, poor fit].
